Test results published in paper PMC5421940.

Biological target: GFP-MCPyV tAg A101R (Merkel cell polyomavirus)
Test: co-IP

B1: FLAG-PP4c (expressed in cells) (enzyme, UniProt P60510 1-307)
chain: MAEISDLDRQIEQLRRCELIKESEVKALCAKAREILVEESNVQRVDSPVTVCGDIHGQFYDLKELFRVGGDVPETNYLFMGDFVDRGFYSVETFLLLLALKVRYPDRITLIRGNHESRQITQVYGFYDECLRKYGSVTVWRYCTEIFDYLSLSAIIDGKIFCVHGGLSPSIQTLDQIRTIDRKQEVPHDGPMCDLLWSDPEDTTGWGVSPRGAGYLFGSDVVAQFNAANDIDMICRAHQLVMEGYKWHFNETVLTVWSAPNYCYRCGNVAAILELDEHLQKDFIIFEAAPQETRGIPSKKPVADYFL
  binding: binds

No constants are given. Whether binding was seen depends on the method and setting. In cells and extracts the contact can be indirect. Binding can be weak; no strength is given. Where a sequence is shown, tags or fusion partners need not be part of it.
